Results from patent US20260265525A1, “DEVELOPMENT OF HIGHLY FLUOROGENIC STYRENE PROBES FOR VISUALIZING RNA IN LIVE CELLS” (UNIVERSITY OF SOUTHERN CALIFORNIA, priority 2023, published 2026).

Test system: HeLa cells
Test: Fluorescence lifetime imaging microscopy (FLIM) in cells
Assay type: cell-based

Structure (SMILES): C[n+]1ccc(/C=C/c2ccc3ccccn23)cc1.[I-] [Dye 1c]
- fluorescence lifetime, cytoplasm (HeLa, 20 μM): 1.6 ns
- fluorescence lifetime, nucleolus (HeLa, 20 μM): 3.4 ns
- fluorescence lifetime, nucleus (HeLa, 20 μM): 2.5 ns
- fluorescence lifetime, unbound dye (surrounding media): 0.82 ns
